Results are given in words; binding and its absence hold for the method and conditions named. Binding seen in cells or lysates may run through a third protein. A yes stands for co-enrichment or nearness to the bait. Other partners may have been found.

Protein sequences, listed by entry. Tags and fused reporters are not part of them. Residues count along the entry.
UniProt Q00610, 1-1074: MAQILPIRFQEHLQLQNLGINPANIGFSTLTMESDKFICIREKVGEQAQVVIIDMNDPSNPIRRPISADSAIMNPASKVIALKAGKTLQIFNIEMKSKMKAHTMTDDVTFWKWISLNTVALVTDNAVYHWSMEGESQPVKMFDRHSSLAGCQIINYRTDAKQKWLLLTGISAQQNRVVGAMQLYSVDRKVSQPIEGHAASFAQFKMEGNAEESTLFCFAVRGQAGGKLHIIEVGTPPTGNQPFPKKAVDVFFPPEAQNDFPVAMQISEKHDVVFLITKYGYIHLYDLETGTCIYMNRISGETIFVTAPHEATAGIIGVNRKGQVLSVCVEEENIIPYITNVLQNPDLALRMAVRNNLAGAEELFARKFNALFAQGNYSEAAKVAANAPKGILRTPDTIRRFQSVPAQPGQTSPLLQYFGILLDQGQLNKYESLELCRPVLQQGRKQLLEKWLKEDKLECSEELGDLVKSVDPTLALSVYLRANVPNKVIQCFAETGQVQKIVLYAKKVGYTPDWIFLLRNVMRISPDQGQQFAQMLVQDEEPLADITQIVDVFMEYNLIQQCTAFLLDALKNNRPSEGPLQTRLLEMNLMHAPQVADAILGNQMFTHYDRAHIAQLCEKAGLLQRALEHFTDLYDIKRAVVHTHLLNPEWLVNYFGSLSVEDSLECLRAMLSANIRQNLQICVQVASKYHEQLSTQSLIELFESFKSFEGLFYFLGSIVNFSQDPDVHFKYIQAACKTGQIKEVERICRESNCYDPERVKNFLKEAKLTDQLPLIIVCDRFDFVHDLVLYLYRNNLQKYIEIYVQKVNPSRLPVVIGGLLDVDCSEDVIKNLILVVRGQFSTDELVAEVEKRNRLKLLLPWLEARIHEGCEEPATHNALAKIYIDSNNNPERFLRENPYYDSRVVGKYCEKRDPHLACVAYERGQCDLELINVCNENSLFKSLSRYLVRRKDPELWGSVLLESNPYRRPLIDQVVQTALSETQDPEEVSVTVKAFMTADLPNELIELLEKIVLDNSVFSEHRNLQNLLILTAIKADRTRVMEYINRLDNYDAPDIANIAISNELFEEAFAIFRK

This assay has as its target HA-tagged TDD (N-terminal domain + distal leg of clathrin heavy chain, residues 1-1074) (UniProt Q00610). The experiment in a line: affinity purification with mass spectrometry.

Take “SNX9 (endogenous, ARPE cells) (from UniProt Q9Y5X1 1-595)”: the binding entry is “binds”.

For the origin of these results see doi:10.1101/2020.01.24.919092.
